Results reported in PubChem BioAssay AID493014 (National Center for Advancing Translational Sciences (NCATS), 2011).
Where “and” joins values, the source holds several entries; their conditions need not be identical. Identical values can stand only once. About 170 (0.05%) of roughly 340,000 compounds were called active. Inconclusive results, whose numbers are uncertain, are shown with a selection of clear calls. Calls follow the shape of the dose curve; as a rule, active = well fitted inhibition curve with a large enough effect in the signal ratio, with a control signal flat (not every such curve was filed as active); inconclusive = small, poorly fitted or top-dose-only effect, or effect the other way, or a change in a side signal; inactive = flat fitted curve, though single readings scatter; the % refers to the signal ratio. Potencies of inconclusive entries are doubtful fits and often do not repeat.
Potency is read from the fitted curve at half-maximal effect.

Assay: qHTS Assay to Find Inhibitors of Chronic Active B-Cell Receptor Signaling;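 as to activity change, negative = inhibition: plate controls were basal doxycycline-induced cells for no effect and cells given 10 µM MG132 for full effect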
Details: ABC-DLBCL IkBa-CBG/CBR reporter, luminescence ratio (green luciferase fused to IkBa over red control in TMD8 lymphoma cells), 4 h; activity change, negative = inhibition: at 46.1 µM (top of the series)
Summary of the method: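 TMD8 human ABC-DLBCL cells with doxycycline-inducible IκBα–green luciferase fusion and unfused red luciferase, in 0.5% FBS medium; compounds up to 46 uM, 4 h at 37C. Green/red luminescence ratio, filter-overlap corrected, fitted to concentration-response curves.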
For `CCN1C(=O)C(CC(=O)Nc2ccc(Br)cc2)N(CCCc2ccccc2)C1=S` (stereo not drawn), the activity change, negative = inhibition was inconclusive: 6.36%.
With `CCCC(=O)c1cc(F)c(N2CCOCC2)cc1C` the activity change, negative = inhibition was inconclusive: 0.358%.
In the case of `O=S(=O)(Nc1ccc2nc(-c3ccc(Br)o3)[nH]c2c1)c1ccccc1`, the activity change, negative = inhibition is reported as inconclusive: -0.0142%.
In the case of `O=c1[nH]c(/C=C/c2ccccc2)c([N+](=O)[O-])c(=O)[nH]1`, the Potency is reported as inconclusive: 12.6 µM [falling, partial curve, poor fit].
With `CCCC(=O)Nc1ccc(-c2csc(-c3cccnc3)n2)cc1` the activity change, negative = inhibition was inconclusive: 5.93%.
With `Cc1cc2nn(-c3ccc(Cl)cc3)nc2cc1N` the Potency was inconclusive: 22.4 µM [falling, single point].
With `CCOC(=O)c1ccc(N2C(=O)C(CC(N)=O)N(CCc3ccc(OC)c(OC)c3)C2=S)cc1` (stereo not drawn) the Potency was inconclusive: 31.6 µM [falling, single point].
In the case of `O=C(NCCCc1ccccc1)c1c(O)nc2sccn2c1=O`, the Potency is reported as inconclusive: 14.6 µM [falling, partial curve].
With `Cc1ccc(S(=O)(=O)Nc2cccc(Cl)c2)cc1NC(=O)C1CC1` the Potency was inconclusive: 25.9 µM [falling, single point].
In the case of `O=C(/C=C/c1ccc(S(=O)(=O)N2CCOCC2)cc1)OCC(=O)c1ccc([N+](=O)[O-])cc1`, the activity change, negative = inhibition is reported as inconclusive: 11.1%.
With `CCOc1ccc(S(=O)(=O)N2CN(c3cccc(C(C)=O)c3)c3nc4ccccc4nc32)cc1` the activity change, negative = inhibition was “inactive”.
For `COc1ccc(NC(=O)Nc2cc(C)ccc2OC)cc1`, the activity change, negative = inhibition was inconclusive: 17.6%.
For `O=S(=O)(c1ccc(Cl)cc1)N1CN(CC2CCCO2)c2nc3ccccc3nc21` (stereo not drawn), the activity change, negative = inhibition was “inactive”.
In the case of `Cc1ccc2oc(C(=O)NCCC3CCCCO3)c(C)c2c1` (stereo not drawn), the activity change, negative = inhibition is reported as inconclusive: 5.4%.
For `COc1ccc(CN2CCN(C(=O)c3ccc4nc(N5CCOCC5)sc4c3)CC2)c(OC)c1OC`, the activity change, negative = inhibition was inconclusive: 0.343%.
In the case of `CCn1c(C)c(C(=O)O)c2cc(OC)c3ccccc3c21`, the activity change, negative = inhibition is reported as inconclusive: -3.56%.
For `CC(OC(=O)c1snc(C(=O)NC2CCCCC2)c1N)C(=O)NC(C)(C)C` (stereo not drawn), the Potency was inconclusive: 2.06 µM [falling, partial curve].
With `O=S(=O)(/C=C/c1ccccc1)N1CCOCC1` the activity change, negative = inhibition was “inactive”.
With `O=S1(=O)CCC(N=Cc2ccc(-c3ccc(Cl)cc3)o2)C1` (stereo not drawn) the activity change, negative = inhibition was inconclusive: -29.6%.
With `NCc1cccc(CNc2ccc([N+](=O)[O-])cc2C(N)=O)c1` the Potency was inconclusive: 23.1 µM [falling, single point].
With `Cc1ncc(CO)c(/C=N/NC(=O)c2ccccc2Br)c1O` the Potency was inconclusive: 13 µM [falling, partial curve].
With `Cc1c(/C=N\NC(=O)c2c[nH]c3ccccc23)cnn1C` the activity change, negative = inhibition was inconclusive: -18.8%.
In the case of `CC1(C(=O)OCC(=O)Nc2ccccc2Cl)CC1(Cl)Cl` (stereo not drawn), the Potency is reported as inconclusive: 11.2 µM [falling, partial curve].
For `CCOc1cc(NC(=S)NCc2ccco2)c(OCC)cc1NC(=O)c1ccco1`, the Potency was inconclusive: 6.31 µM [rising, full curve, poor fit].
In the case of `CCC(=O)Nc1cc(C(=O)OCC(=O)c2ccccc2)ccc1C`, the activity change, negative = inhibition is reported as inconclusive: -16.1%.
For `COC(=O)C1C(c2ccccc2)NC(=O)NC1(O)C(F)(F)Cl` (stereo not drawn), the activity change, negative = inhibition was inconclusive: 4.49%.
In the case of `O=c1[nH]c(C2CCCN(S(=O)(=O)c3ccccc3)C2)nc2c1nnn2Cc1cccc(Cl)c1` (stereo not drawn), the activity change, negative = inhibition is reported as inconclusive: -9.64%.
For `Nc1c(C(=O)NCCc2ccccc2)nnn1Cc1ccccc1`, the Potency was inconclusive: 18.4 µM [falling, single point].
With `Cc1nc2sc(C(N)=O)c(N)c2c2c1CCCC2` the activity change, negative = inhibition was inconclusive: 23.7%.
With `CCc1ccc(NC(=S)N(CCN2CCOCC2)Cc2ccccc2F)cc1` the activity change, negative = inhibition was “inactive”.
In the case of `COCCn1c(C)cc(C(=O)COC(=O)c2[nH]c(C)c(C(C)=O)c2C)c1C`, the activity change, negative = inhibition is reported as inconclusive: -0.178%.
For `Cn1cncc1C#Cc1c(-c2ccc(S(C)(=O)=O)cc2)sc2ccccc12`, the activity change, negative = inhibition was “inactive”.
In the case of `CCCc1nnc(SCC(=O)N2CCOCC2)n1CCCOC`, the activity change, negative = inhibition is reported as inconclusive: 0.747%.
With `Cc1ccc(NS(=O)(=O)c2cc(C(=O)N3CCc4ccccc4C3)ccc2Cl)cc1` the activity change, negative = inhibition was “inactive”.
With `Cc1nc(C)c(-c2csc(Nc3ncccc3C)n2)s1` the Potency was inconclusive: 12.6 µM [falling, partial curve, poor fit].
With `Cc1c(-c2ccc(Cl)cc2)[n+](=O)c2c(n1[O-])CCCC2` the activity change, negative = inhibition was inconclusive: 9.37%.
In the case of `C/C(=N\NC(=O)CNc1ccc(F)cc1)c1cc2ccccc2o1`, the activity change, negative = inhibition is reported as “inactive”.
For `O=C(CCC(=O)N(CC(=O)NC1CCCCC1)Cc1cccs1)Nc1nccs1`, the activity change, negative = inhibition was inconclusive: -7.79%.
With `Cc1ccnc(NC(=O)c2cccc(NC(=O)c3ccccc3C)c2)c1` the activity change, negative = inhibition was inconclusive: -10.5%.
In the case of `c1ccc(NCc2ccccn2)cc1`, the activity change, negative = inhibition is reported as inconclusive: 5.4%.
For `CCCCSc1nc2ccccc2[nH]1`, the activity change, negative = inhibition was inconclusive: -0.933%.
For `COc1ccc(NS(=O)(=O)c2cc(NC(=O)[C@H](C)NC(N)=O)ccc2N2CCCC2)cc1`, the activity change, negative = inhibition was inconclusive: -1.15%.
In the case of `Cc1ccc(CNC(=O)C2C3C=CC4(CN(Cc5cccnc5)C(=O)C24)O3)cc1` (stereo not drawn), the activity change, negative = inhibition is reported as inconclusive: -20.7%.
With `Cc1[nH]c2c(Cl)cccc2c1CCNC(=O)C1CCCCC1C(=O)OCC(F)(F)F` (stereo not drawn) the activity change, negative = inhibition was “inactive”.
For `CCN(CC)S(=O)(=O)c1cc(NS(=O)(=O)c2ccc(Cl)c(C(=O)O)c2)ccc1C`, the activity change, negative = inhibition was inconclusive: -3.19%.
In the case of `Cc1cccc(NC(=S)N/N=C/c2cccc([N+](=O)[O-])c2)c1`, the Potency is reported as inconclusive: 23.1 µM [falling, single point].
With `COc1cccc(C(=O)Nc2ccc(N3CCCC3)cc2)c1` the Potency was inconclusive: 3.55 µM [falling, partial curve].
In the case of `CC(C)Nc1nnc(SCC(=O)/C=C2\N(C)c3ccccc3C2(C)C)s1`, the activity change, negative = inhibition is reported as inconclusive: 4.49%.
With `Cc1ccsc1C(=O)C1CCCN(Cc2cccn2-c2ccc(Cl)cn2)C1` (stereo not drawn) the activity change, negative = inhibition was inconclusive: 1.05%.
With `Cc1ccc(C)c(NC(=S)NCCc2ccc(F)cc2)c1` the activity change, negative = inhibition was “inactive”.
In the case of `Cc1cccc2cc(C#N)c(SCC(=O)N3CC(=O)Nc4ccccc43)nc12`, the Potency is reported as inconclusive: 0.355 µM [falling, full curve].
For `O=C(CN1C2=NCCCN2c2ccccc21)c1cccc(Br)c1`, the activity change, negative = inhibition was inconclusive: -10.3%.
In the case of `COc1ccc(NC(=O)c2ccc3c(c2)OCO3)cc1`, the Potency is reported as inconclusive: 31.6 µM [rising, single point].
In the case of `COc1cccc(C2C=C(c3ccc(C)c(C)c3)Nc3nnnn32)c1OC` (stereo not drawn), the activity change, negative = inhibition is reported as “inactive”.
In the case of `COc1cc(C2Oc3ccccc3C=C2[N+](=O)[O-])cc(OC)c1OC` (stereo not drawn), the activity change, negative = inhibition is reported as inconclusive: 23.4%.
With `Cc1cc(Cl)ccc1OCc1n[nH]c(=S)n1C1CCCCC1` the activity change, negative = inhibition was “inactive”.
With `Cc1ccc(OCC(=O)N(Cc2cccc(Cl)c2)C2CCS(=O)(=O)C2)cc1C` (stereo not drawn) the activity change, negative = inhibition was inconclusive: -27.8%.
In the case of `CC(C)(C)C(=O)Oc1ccc2cc(-c3ccc4ccccc4n3)c(=O)oc2c1`, the activity change, negative = inhibition is reported as “inactive”.
With `Cc1cc(C)c(S(=O)(=O)Nc2ccc3c(c2)CCC3)c(C)c1` the activity change, negative = inhibition was inconclusive: -0.664%.
For `O=C(Cn1nnc2ccccc21)c1ccc(Cl)cc1`, the activity change, negative = inhibition was “inactive”.
In the case of `COc1ccc(C(=O)/C=C/c2ccc(OC3CSC3)cc2)cc1OC`, the activity change, negative = inhibition is reported as “inactive”.
For `CS(=O)(=O)N(CC(=O)N1CCCC1)Cc1ccccc1`, the Potency was inconclusive: 11.2 µM [falling, single point].
With `CC1CCN(C(=O)CSc2nc3c(c(=O)n2C)SC(C)C3)CC1` (stereo not drawn) the activity change, negative = inhibition was inconclusive: -3.44%.
For `COC(=O)C(C)(C)ONC(=O)Nc1ccccc1[N+](=O)[O-]`, the activity change, negative = inhibition was inconclusive: -1.44%.
For `COC(=O)C1=C(C)N(C)C(=O)/C1=C\c1ccco1`, the activity change, negative = inhibition was inconclusive: -1.65%.
With `COc1ccc(Nc2ncnc3sc(-c4ccccc4)cc23)c(OC)c1` the activity change, negative = inhibition was inconclusive: -2.1%.
In the case of `COc1ccccc1NC(=O)c1c(NCc2ccc(OC)c(OC)c2OC)sc2c1CCCC2`, the activity change, negative = inhibition is reported as inconclusive: 9.29%.
For `O=C(Nc1ccc(Cl)c(S(=O)(=O)N2CCCCC2)c1)c1ccco1`, the activity change, negative = inhibition was inconclusive: -0.0931%.
In the case of `CN(CC1CCOCC1)C(=O)CC1C(=O)NCCN1Cc1cccc(F)c1` (stereo not drawn), the activity change, negative = inhibition is reported as inconclusive: -5.15%.
In the case of `c1ccc(COc2ccc(OCCCN3CCCCC3)cc2)cc1`, the activity change, negative = inhibition is reported as inconclusive: -2.46%.
In the case of `CC(C)CNS(=O)(=O)c1cc(C(=O)OCC(=O)N(C)C2CCS(=O)(=O)C2)c(Cl)cc1Cl` (stereo not drawn), the activity change, negative = inhibition is reported as inconclusive: 0.351%.
For `COC(=O)CSc1cc(C)nc2ccc(OC)cc12`, the activity change, negative = inhibition was “inactive”.
In the case of `Cn1c(-c2ccccc2)cnc1NCc1ccc(F)cc1`, the activity change, negative = inhibition is reported as “inactive”.
For `Cc1cc2ccccn2c1C(=O)c1cccc([N+](=O)[O-])c1`, the activity change, negative = inhibition was “inactive”.
With `COc1ccc(CN2C(=O)C(O)(CC(=O)c3ccc4c(c3)OCO4)c3ccccc32)cc1OC` (stereo not drawn) the Potency was inconclusive: 5.17 µM [falling, full curve].
For `CS(=O)(=O)N(CC(=O)NCc1ccc2c(c1)OCO2)Cc1ccccc1`, the activity change, negative = inhibition was inconclusive: 13.8%.
For `CC(C)c1ccc(CNc2ccc(N3CCOCC3)cc2)cc1`, the activity change, negative = inhibition was “inactive”.
With `Cn1c(-c2ccc(F)cc2)cnc1NCc1ccccc1` the Potency was inconclusive: 23.1 µM [falling, single point].
With `CCN1C(=O)[C@H]2[C@@H](c3ccc(Cl)cc3)N3C(=O)CN(CC4CC4)C(=O)[C@@]3(Cc3ccccc3)[C@H]2C1=O` the activity change, negative = inhibition was “inactive”.
With `COc1cc(C)c(S(=O)(=O)N2CCCC2)cc1C` the activity change, negative = inhibition was inconclusive: 3.87%.
For `CCOC(=O)c1sc2nc(N3CCOCC3)c3c(c2c1N)CCC3`, the activity change, negative = inhibition was inconclusive: -4.15%.
With `Cc1ccc(NC(=O)C(C)Sc2nc(=O)cc(N)n2-c2ccccc2)cc1` (stereo not drawn) the activity change, negative = inhibition was inconclusive: 0.926%.
